Test [1] deals with T1, human IL-6 receptor (human, UniProt P08887 20-357, limits assumed, biotin-labeled in the ELISA and Octet assays (position not given)).
T1 construct: also called hIL-6R; biotin-labeled hIL-6R
T1 sequence: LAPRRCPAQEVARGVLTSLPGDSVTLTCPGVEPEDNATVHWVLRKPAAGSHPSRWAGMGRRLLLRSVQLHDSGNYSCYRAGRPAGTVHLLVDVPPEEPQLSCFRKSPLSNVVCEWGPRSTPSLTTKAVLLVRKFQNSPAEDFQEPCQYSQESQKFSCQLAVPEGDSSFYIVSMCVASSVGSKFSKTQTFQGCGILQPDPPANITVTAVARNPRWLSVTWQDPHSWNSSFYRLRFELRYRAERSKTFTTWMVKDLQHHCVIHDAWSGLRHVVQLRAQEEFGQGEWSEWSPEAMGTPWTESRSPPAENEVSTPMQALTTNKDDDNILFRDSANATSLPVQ
Nature of the test: phage ELISA: biotin-labeled human IL-6 receptor on a streptavidin plate, purified Fab-displaying phage, HRP anti-M13 antibody, absorbance 450 nm; with or without 10 mM ATP and adenosine. On the technique in general: An ELISA detects its analyte on a solid surface through an enzyme-linked reagent.

In test [2] the target is T1, human IL-6 receptor. As to the kind of experiment: phage ELISA (Fab on phage), biotin-labeled antigen, without ATP and adenosine.

The results in this text go back to patent US20240158785A1 (Chugai, published 2024).

These are yes or no findings as the source states them, for the method shown. Some entries that bind do so weakly or less than the wild type.

B1: 6RRLSA1-6_045 (Fab, V domains shown)
VH: EVQLVESGGDLVKPGGGLRLSCAASGFTFSGYTMHWVRQAPGKGLEWVSSISSRSNHRSYADSVKGRFTISRDNAKNSLYLQMNSLRAEDTAVYYCARFGKRFDRNWVFDYWGQGTLVTVSS
VL: QSALTQPPSASGSPGQTVTISCTGTSTDVGTYNYVSWYQQHPGKAPKLMIYKTSKRPSGVPDRFSGSKSGNTASLTVSGLQAEDEADYFCSSRRYRRSLSFGGGTKLTVL
With B1, the binding entry with human IL-6 receptor [1] and in the test with human IL-6 receptor [2] was “binds” in each case.

B2: 6RRLSA1-6_037 (Fab, V domains shown)
VH: EVQLVESGGDLVKPGGGLRLSCAASGFTFSTYTMHWVRQAPGKGLEWVSSISSRSGHRHYADSVKGRFTISRDNAKNSLYLQMNSLRAEDTAVYYCARYGKKGNRNWVFDYWGQGTLVTVSS
VL: QSALTQPPSASGSPGQTVTISCTGTSTDVGGYNYVSWYQQHPGKAPKLMIYSTSKRPSGVPDRFSGSKSGNTASLTVSGLQAEDEADYFCSTTTYAKNPVFGGGTKLTVL
Regarding B2, the binding result with human IL-6 receptor [1] and with human IL-6 receptor [2] was “binds” in each case.
